This passage reports binding results from article doi:10.1101/462036 (bioRxiv, 2018).

The chains behind the UniProt entries cited, without tags or fusion partners. Residues count along the entry.
UniProt Q80Z24, residues 32-318: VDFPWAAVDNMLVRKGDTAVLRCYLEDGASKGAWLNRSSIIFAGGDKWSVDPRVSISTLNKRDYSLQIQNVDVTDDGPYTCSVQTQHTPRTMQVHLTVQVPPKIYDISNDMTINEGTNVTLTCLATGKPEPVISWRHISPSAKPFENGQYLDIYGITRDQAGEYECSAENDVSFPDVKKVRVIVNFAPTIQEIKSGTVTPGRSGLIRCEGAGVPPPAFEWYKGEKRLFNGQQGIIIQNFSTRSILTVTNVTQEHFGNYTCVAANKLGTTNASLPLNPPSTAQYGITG

No constants are given. Whether binding was seen depends on the method and setting. Some entries that bind do so weakly or less than the wild type.

The target in this experiment is Mouse NEGR1 full-length ectodomain (mouse) (UniProt Q80Z24). As to the kind of experiment: extracellular interactome assay.

B1: Mouse NTM full-length ectodomain (domain or fragment, UniProt Q99PJ0 34-321)
chain: GDATFPKAMDNVTVRQGESATLRCTIDNRVTRVAWLNRSTILYAGNDKWCLDPRVVLLSNTQTQYSIEIQNVDVYDEGPYTCSVQTDNHPKTSRVHLIVQVSPKIVEISSDISINEGNNISLTCIATGRPEPTVTWRHISPKAVGFVSEDEYLEIQGITREQSGEYECSASNDVAAPVVRRVKVTVNYPPYISEAKGTGVPVGQKGTLQCEASAVPSAEFQWFKDDKRLVEGKKGVKVENRPFLSKLTFFNVSEHDYGNYTCVASNKLGHTNASIMLFGPGAVSEVNN
In the case of B1, the binding result is “binds”.
